Results are given in words; binding and its absence hold for the method and conditions named. In cells and extracts the contact can be indirect. These calls come from enrichment with a bait or labelling near it, and not all partners need be listed. Where a sequence is shown, tags or fusion partners need not be part of it.

The test concerns the target T1, GFP::RAB-11.1 (C. elegans) (UniProt O01803).
T1 sequence: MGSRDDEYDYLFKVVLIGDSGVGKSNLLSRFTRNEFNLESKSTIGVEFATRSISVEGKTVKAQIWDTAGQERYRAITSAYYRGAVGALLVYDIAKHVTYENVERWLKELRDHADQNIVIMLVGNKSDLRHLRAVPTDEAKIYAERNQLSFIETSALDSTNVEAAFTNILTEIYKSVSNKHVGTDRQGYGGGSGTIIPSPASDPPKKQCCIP
Description: affinity purification with mass spectrometry; anti-GFP immunoprecipitation (mouse anti-GFP, Protein G magnetic beads) of GFP::RAB-10 or GFP::RAB-11.1 from late L4 worm extracts in non-denaturing lysis buffer (50 mM Hepes pH 7.4, 150 mM NaCl, 1 mM EDTA, 1% Triton X-100), 4°C; LC-MS/MS; worms on control or hsf-1 RNAi; two biological replicates.

B1: nuclear hormone receptor NHR-49 (protein, UniProt O45666 1-501)
chain: MDYFLDASKHIQLNQIDEESSDDFMDLVDPLAEPCAVCGDKSTGTHYGVISCNGCKGFFRRTVLRDQKFTCRFNKRCVIDKNFRCACRYCRFQKCVQVGMKREAIQFERDPVGSPTSGASLNGTPFKKDRSPGYENGNSNGVGSNGMGQENMRTVPQSSSVIDALMEMEARVNQEMCNRYRRSQIFANGSGGSNGNDTDIQQGSDSGASAFAPPNRPCTTEVDLNEISRTTLLLMVEWAKTINPFMDLSMEDKIILLKNYAPQHLILMPAFRSPDTTRVCLFNNTYMTRDNNTDLNGFAAFKTSNITPRVLDEIVWPMRQLQMREQEFVCLKALAFLHPEAKGLSNSSQIMIRDARNRVLKALYAFILDQMPDDAPTRYGNILLLAPALKALTQLLIENMTLTKFFGLAEVDSLLSEFILDDINDHSTAPVSLQQHLSSPTTLPTNGVSPLNPAGSVGSVSSVSGITPTGMLSATLAAPLAIHPLQSQDSILNSEQNNHML
On to B1, for which the binding entry is reported as “binds”.
